Test results from patent US20130209489A1 (Amgen, published 2013).
These are yes or no findings as the source states them, for the method shown. Some binding calls cover weakened binding; strength is not graded here.

Amino acid sequences for entries named in this document (tags omitted). Residues count along the entry.
UniProt O95390, residues 299-407: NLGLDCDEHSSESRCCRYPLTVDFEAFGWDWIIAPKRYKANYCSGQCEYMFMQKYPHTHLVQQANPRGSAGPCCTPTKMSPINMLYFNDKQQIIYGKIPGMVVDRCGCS

What was measured:
[1] = biological target: Peptide C (CNBr peptide, Cys knot, dimer) (human); assay: BIAcore competition assay, peptide in solution against immobilized human myostatin
[2] = biological target: Peptide E (reduced CNBr peptide, 1-80) (human); assay: as above
[3] = biological target: Peptide C (CNBr peptide, Cys knot, dimer) (human); assay: BIAcore competition: 12A5-5 pre-incubated with the HPLC peptide fraction in solution, then passed over immobilized human myostatin; low response means the peptide binds the antibody
[4] = biological target: Peptide E (reduced CNBr peptide, 1-80) (human); assay: as above
[5] = biological target: T1, GDF11 (UniProt O95390 299-407); assay: Biacore SPR, 10 nM ligand over immobilized antibody
T1 construct: also called growth and differentiation factor 11; BMP-11

[6] = biological target: Peptide C (CNBr peptide, Cys knot, dimer) (human); assay: BIAcore competition assay, legend of FIG. 6
[7] = biological target: Peptide E (reduced CNBr peptide, 1-80) (human); assay: BIAcore competition assay, legend of FIG. 6
[8] = biological target: Peptide C (CNBr peptide, Cys knot, dimer) (human); assay: direct BIAcore binding: 25 nM 12A5-5 passed over the covalently immobilized peptide, then buffer
[9] = biological target: Peptide E (reduced CNBr peptide, 1-80) (human); assay: as above
[10] = biological target: Peptide C (CNBr peptide, Cys knot, dimer) (human); assay: direct BIAcore binding, 25 nM antibody over immobilized peptide
[11] = biological target: Peptide E (reduced CNBr peptide, 1-80) (human); assay: as above

Measured: binding

B1: anti-myostatin neutralizing monoclonal antibody 12A5-5 (antibody, V domains shown)
VH: EVQLVESGGGLVQPGGSLRLSCAASGFTFSRYWMNWVRQAPGKGLEWVAQIRLKSDNYATHYAESVKGRFTISRDNAKNSLYLQMNSLRAEDTAVYYCTEGLDYWGQGTTVTVSS
VL: DIQMTQSPSSLSASVGDRVTITCKASQDINKYVAWYQQKPGKAPKLLIYYTSWLQPGVPSRFSGSGSGTDFTFTISSLQPEDIATYYCLQYDNLLYTFGQGTKLEIK
notes: in the KinExA assay it was detected with a goat anti-human-Fc antibody, so it carries a human Fc; also called Mab 12A5-5; MAb 12A5-5
binds: [1] | [2] | [3] | [4] | [5] | [6] | [7] | [8] | [9] | [10] | [11]
